Laboratory results reported in paper PMC8576533.

Assays:
[1] = target: RH2A-HA (Trypanosoma brucei (Lister strain 427)); assay: affinity purification with mass spectrometry; co-IP of RH2A-HA or RH2C-HA from PCF lysate with anti-HA antibody-Sepharose (3 h, 4°C, IP buffer: 150 mM NaCl, 20 mM Tris-HCl pH 8.0, 10 mM MgCl2, 0.25% Igepal CA-630); WT cells as control; MS of eluates, four biological replicates
[2] = target: RH2C-HA (Trypanosoma brucei (Lister strain 427)); assay: as above

B1: DOT1A (enzyme, UniProt Q581Z0 1-295)
chain: MPGLLISRKRTRSEASGKPIGEIKCVAENRVQALKPPLGELVPKGELGAGTPHEPYNLPLRGNPNKSGCHHCLADQCHCVFFERLLDATFRRLDIKRITEVSGSRHLCAKSLLPTFVSRMVRLMEITSEDTFYDLGCGNGSILFQVAFLTGARCVGIEISEHNAKVAKKAWEVIRPELEGSSGRSMPEVNIITSDMTKILADERLFESERGKTVILLSNLLFPKSLTHYLSERFRRVPSGTRILCFDDLYPHSRSVAAIRDPEAFRLFAMTDYRWQECSVEWCTRDGPFFIHRRR
- binding [1]: binds
- binding [2]: binds

These are yes or no findings as the source states them, for the method shown. In cells and extracts the contact can be indirect. Here binding means that the protein was enriched with, or labelled near, the bait; the list need not be complete.
